For one data set, the system named is DNA. Put plainly: DNA intercalation by change in absorbance spectra upon DNA addition. The class given is binding. Conditions: absorbance spectra with increasing DNA concentration.
For data set [1], the system named is MPTP-treated C57 Black mice. Put plainly: MPTP mouse model of PD, striatal monoamine levels. The class given is in vivo. On the procedure: As a prelude to assessment of PIP-1 in a mouse model of PD, the ability of PIP-1 to penetrate the blood-brain-barrier is first assessed. PIP-1 is injected i.p. at a dose of 50 mg/kg, and mice are sacrificed at 1 and 2 h post injection. After sacrifice, to establish the presence of PIP-1 in the brain the striatum was dissected, sonicated in perchloric acid, and centrifuged. The clarified supernatant is analyzed by HPLC. No endogenous compounds interfere with this assay for PIP-1 as no signal is detected in dissected striata from non-treated mice. As shown by FIG. 21A, the striatal penetrance of PIP-1 is at the level of 70 ng/mg of protein. […] Given this blood-brain-barrier penetrance by PIP-1, the compound is assessed in the MPTP mouse model of PD. Mice are given a one-time i.p. injection of PIP-1 followed 30 minutes later by an injection of MPTP (30 mg/kg). PIP-1 is assessed at concentrations of 0 mg/kg, 1 mg/kg, 5 mg/kg, 10 mg/kg, and 50 mg/kg, and five mice are used in each group. After 30 days, the mice are sacrificed and the striatum dissected and analyzed by HPLC to determine the levels of dopamine and various dopamine metabolites. […]

“Also recorded” adds a separate entry of the source.

For “4-Amino-5-dimethylamino-2-phenyl-2H-pyridazin-3-one [PIP-1]”, the DNA intercalation entry in the data set on DNA is on record as “does not intercalate into DNA”.
Turning to `CN(C)c1cnn(-c2ccccc2)c(=O)c1N` [PIP-1, 4-Amino-5-dimethylamino-2-phenyl-2H-pyridazin-3-one], the DNA intercalation entry with DNA is “No such shift”. The “MPP+ levels in the striata of PIP-1-treated vs non-treated mice” value in data set [1] (control experiments) is recorded as “no difference in MPP^+ levels”. Besides, the “Effect on striatal serotonin levels” value in data set [1] (mouse, in vivo) is given as “neither MPTP nor PIP-1 has an effect; also recorded: no effect”.

(Values after patent US20090012088A1 (priority 2005, published 2009).)
